Experimental data reported in PubChem BioAssay (EPA / NIEHS).
“And” between values parts separate entries of the source, which are not always exact repeats. Identical values can stand only once. Inconclusive means that the source gave no clear call. Such entries were picked first, then a sample of the others. For some of these results: Potencies beside an inconclusive call are fits to weak or partial responses and may not hold up. More than one record can exist for a structure, and the calls need not agree. The source made the active and inactive calls. The calls were made as follows: active = hit-call score of the fitted dose curve at least 0.9, where 1 is the maximum; inconclusive = response in the unintended direction; inactive = score below 0.9.

The chains behind the UniProt entries cited, without tags or fusion partners. Where a name states a change or a piece, a line headed by the entry shows the natural chain unless it says otherwise.
UniProt P19793: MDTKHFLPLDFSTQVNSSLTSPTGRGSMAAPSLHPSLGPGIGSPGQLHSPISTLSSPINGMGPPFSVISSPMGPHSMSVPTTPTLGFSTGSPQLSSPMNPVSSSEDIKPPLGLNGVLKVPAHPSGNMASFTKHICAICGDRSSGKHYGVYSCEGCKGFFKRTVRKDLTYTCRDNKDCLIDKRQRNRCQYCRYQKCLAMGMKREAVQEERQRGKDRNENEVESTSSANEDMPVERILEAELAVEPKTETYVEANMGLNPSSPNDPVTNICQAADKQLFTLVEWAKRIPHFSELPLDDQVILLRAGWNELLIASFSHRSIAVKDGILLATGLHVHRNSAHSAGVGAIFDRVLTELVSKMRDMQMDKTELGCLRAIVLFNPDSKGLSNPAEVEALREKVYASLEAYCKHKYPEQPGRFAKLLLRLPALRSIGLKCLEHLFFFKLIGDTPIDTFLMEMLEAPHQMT
UniProt P04637, whole entry, looked up: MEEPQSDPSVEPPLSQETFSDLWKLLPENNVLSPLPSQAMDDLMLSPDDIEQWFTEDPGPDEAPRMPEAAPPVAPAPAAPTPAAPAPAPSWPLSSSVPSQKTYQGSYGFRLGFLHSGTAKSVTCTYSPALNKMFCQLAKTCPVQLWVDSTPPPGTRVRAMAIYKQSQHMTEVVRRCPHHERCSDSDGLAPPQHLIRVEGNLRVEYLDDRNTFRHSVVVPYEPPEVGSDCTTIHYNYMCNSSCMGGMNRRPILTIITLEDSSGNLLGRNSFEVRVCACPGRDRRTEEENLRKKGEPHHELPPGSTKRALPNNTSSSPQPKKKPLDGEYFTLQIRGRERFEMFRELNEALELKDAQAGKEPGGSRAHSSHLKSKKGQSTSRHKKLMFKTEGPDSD

Columns and labels:
[1] = target: Retinoic acid receptor RXR-alpha (Homo sapiens) (UniProt P19793); assay: OT_NURR1_NURR1RXRa_0480: Odyssey Thera (OT) 8-hour HEK293T Protein Complementation Assay for Nurr1/retinoid X receptor (RXR) (AID 2283385)
Procedure, shortened: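 Read-out: fluorescence from protein-fragment complementation between Nurr1 and RXRα in human HEK293T cells, 8 h after dosing. DMSO served as negative control; increased signal counted as activity.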

[2] = target: Retinoic acid receptor RXR-alpha (Homo sapiens) (UniProt P19793); assay: OT_NURR1_NURR1RXRa_1440: Odyssey Thera (OT) 24-hour HEK293T Protein Complementation Assay for Nurr1/retinoid X receptor (RXR) (AID 2283386)
Procedure, shortened: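 Fluorescence PCA read-out; HEK293T; 24 h post-dose; bait/prey fused to reporter fragments; gain-of-signal fit vs DMSO negative control.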

[3] = target: Cellular tumor antigen p53 (Homo sapiens) (UniProt P04637); assay: TOX21_p53_BLA_p2_ratio: Tox21 HCT-116 p53 Agonism Beta-lactamase Assay, Ratio, Phase 2 (AID 2283592)
Procedure, shortened: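 Ratio endpoint: beta-lactamase cleavage of CCF4-AM, blue (460 nm) over green (530 nm). HCT116 reporter line; 16 h treatment, 37C; substrate 2 h RT.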

[4] = TOX21_p53_BLA_p3_viability: Viability Assessment in the Tox21 HCT-116 p53 Agonism Beta-lactamase Assay, Phase 3 (AID 2283593);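 also: cells exposed to compound for 16 h before reading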
Procedure, shortened: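 Cellular ATP was quantified by CellTiter-Glo luminescence, read after 30 min at room temperature. Beforehand, HCT116 cells (4000/well) received compound 5 h post-seeding, 217-fold diluted from DMSO, then incubated 16 h at 37C.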

[5] = target: Cellular tumor antigen p53 (Homo sapiens) (UniProt P04637); assay: TOX21_p53_BLA_p3_ratio: Tox21 HCT-116 p53 Agonism Beta-lactamase Assay, Ratio, Phase 3 (AID 2283596)
Procedure, shortened: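 Cells were seeded at 4000/well, rested 5 h at 37C, then dosed with DMSO compound solutions (217-fold dilution) for 16 h. CCF4-AM substrate was loaded for 2 h at room temperature, and the 460/530 nm emission ratio was fitted for gain of signal versus DMSO.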

[6] = TOX21_p53_BLA_p4_viability: Viability Assessment in the Tox21 HCT-116 p53 Agonism Beta-lactamase Assay, Phase 4 (AID 2283597);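 also: hits lower the luminescence signal meaning cytotoxicity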
Procedure, shortened: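 Cytotoxicity was inferred from loss of CellTiter-Glo luminescence. HCT116 cells had been dosed with compounds after 5 h plating, incubated 16 h at 37C and 5% CO2, and exposed to the CCF4-AM substrate for 2 h.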

[7] = target: Cellular tumor antigen p53 (Homo sapiens) (UniProt P04637); assay: TOX21_p53_BLA_p5_ratio: Tox21 HCT-116 p53 Agonism Beta-lactamase Assay, Ratio, Phase 5 (AID 2283599)
Procedure, shortened: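 Beta-lactamase reporter ratio (blue 460 nm over green 530 nm, 405 nm excitation) after 2 h CCF4-AM loading, in HCT-116 cells exposed 16 h at 37 C to compounds pinned at 217-fold dilution. Increases relative to DMSO baseline scored.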

[8] = TOX21_p53_BLA_p5_viability: Viability Assessment in the Tox21 HCT-116 p53 Agonism Beta-lactamase Assay, Phase 5 (AID 2283600)
Procedure, shortened: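 Luciferase-coupled ATP quantitation of cells treated for 16 h (37C, 5% CO2) with test chemicals delivered in DMSO via a 217-fold dilution; 4000 cells/well; reagent incubated 30 min at room temperature before luminescence reading.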

[9] = Tanguay_ZF_120hpf_JAW_legacy: (Legacy) Oregon State University Tanguay Lab 120 Hour Post-fertilization zebrafish Assay for Jaw Malformation (AID 2283638);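 also: active means more embryos with jaw malformation than DMSO controls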
Procedure, shortened: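 Tropical 5D wild-type embryos, dechorionated with pronase at 4 hpf, were placed singly per well at 6 hpf and statically exposed at 28C until 120 hpf (0.64% DMSO final). Jaw malformation scored as present/absent by brightfield microscopy at 120 hpf, analyzed relative to DMSO.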

[10] = TOX21_p53_BLA_p2_viability: Viability Assessment in the Tox21 HCT-116 p53 Agonism Beta-lactamase Assay, Phase 2 (AID 2283591);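 also: compound exposure lasted 16 h at 37 °C; actives lower the ATP signal meaning cytotoxicity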
Procedure, shortened: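 Cytotoxicity readout: CellTiter-Glo ATP luminescence, 30 min at room temperature, after the beta-lactamase read. Cells were HCT116 exposed 16 h at 37C to compounds pin-transferred at 217-fold dilution from DMSO stocks.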

[11] = target: Cellular tumor antigen p53 (Homo sapiens) (UniProt P04637); assay: TOX21_p53_BLA_p4_ratio: Tox21 HCT-116 p53 Agonism Beta-lactamase Assay, Ratio, Phase 4 (AID 2283601)
Procedure, shortened: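 Signal is the blue/green (460nm/530nm) ratio of cleaved versus uncleaved CCF4-AM substrate, read after 2 h substrate loading. Cells were HCT116 carrying the p53-responsive beta-lactamase reporter, dosed 16 h at 37C, 5% CO2; CellTiter-Glo measured in parallel.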

[12] = Tanguay_ZF_120hpf_AXIS_legacy: (Legacy) Oregon State University Tanguay Lab 120 Hour Post-fertilization zebrafish Assay for Body Axis Malformation (AID 2283635);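 also: potency for an increased fraction of larvae scored with body axis malformation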
Procedure, shortened: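 Tropical 5D wild-type zebrafish embryos, dechorionated with pronase at 4 hpf, were placed singly in wells at 6 hpf and exposed statically to test chemical (0.64% DMSO final) at 28C until 120 hpf, then scored by brightfield for body axis defects.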

[13] = Tanguay_ZF_120hpf_EYE_legacy: (Legacy) Oregon State University Tanguay Lab 120 Hour Post-fertilization zebrafish Assay for Eye Malformation (AID 2283636);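 also: binary presence or absence of eye malformation scored by brightfield in 120 hpf larvae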
Procedure, shortened: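 Binary brightfield scoring of eye defects at 120 hpf after static exposure from 6 hpf of single pronase-dechorionated wild-type embryos (28C, 0.64% DMSO). Non-mortality endpoints omitted where embryos died; fit vs DMSO.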

Measured: AC50

CCOC(=O)O[C@H](C)OC(=O)c1ccc2c(c1)cc(C(=O)NC1CCN(C(C)C)CC1)n2Cc1cc(-c2ccc(Cl)s2)on1
inconclusive: [1] 21.2 µM and 20.9 µM | [2] 21.5 µM and 11.4 µM
active: [3] 27.9 µM | [4] 55.8 µM | [5] 81.9 µM | [6] 13.5 µM | [7] 80.9 µM | [8] 72.9 µM | [9] 47.6 µM

CCN(CCC#N)c1ccc(N=Nc2c(Cl)cc([N+](=O)[O-])cc2Cl)cc1
active: [1] 67.7 µM | [2] 50 µM
inactive: [7] | [11]
inconclusive: [10] 46.1 µM

CC/C=C\CCOC(C)=O
inactive: [1] | [5] | [7] | [11]
inconclusive: [2] 50 µM | [3] 46.1 µM | [6] 46.1 µM | [8] 46.1 µM

CCCCCCCOC(=O)c1ccc(O)cc1
active: [2] 90.7 µM | [3] 58.9 µM and 86.4 µM | [4] 44.2 µM | [5] 74.5 µM | [6] 51.3 µM | [7] 74.3 µM | [11] 68.3 µM
inconclusive: [1] 93.1 µM
inactive: [5]

C=CC(=O)NC(C)(C)CS(=O)(=O)O
inactive: [4]
inconclusive: [1] 9.92 µM | [2] 8.9 µM | [3] 46.7 µM and 46.1 µM | [7] 46.1 µM and 45.3 µM

CCCCCCCCCCCCS
active: [1] 77.6 µM | [2] 93.7 µM
inactive: [4]
inconclusive: [4] 2.82 µM | [5] 46.1 µM | [6] 46.1 µM | [7] 76.2 µM | [8] 46.1 µM

C1=Cc2ccccc2C1
inactive: [2] | [8]
inconclusive: [1] 50 µM | [10] 46.1 µM | [5] 46.1 µM | [7] 31.1 µM | [11] 46.1 µM

CCCCCCCC(=O)OC
inconclusive: [1] 50 µM | [3] 46.1 µM | [4] 45.5 µM | [5] 46.1 µM | [7] 46.1 µM and 45.5 µM | [11] 46.1 µM
inactive: [2] | [4]

CCN(Cc1cccc(S(=O)(=O)O)c1)c1ccc(C(=C2C=CC(=[N+](CC)Cc3cccc(S(=O)(=O)O)c3)C=C2)c2ccccc2S(=O)(=O)[O-])cc1
inactive: [1] | [5]
active: [2] 46.6 µM | [10] 19.4 µM | [6] 35.5 µM

Cc1ccc(C(C)c2ccc(C)c(C)c2)cc1C
active: [1] 83.5 µM | [2] 76.4 µM
inconclusive: [10] 46.1 µM | [4] 1.88 µM | [6] 74.5 µM | [8] 46.1 µM

O=c1[nH]sc2ccccc12
inactive: [10] | [4] | [6]
inconclusive: [1] 50 µM and 80.1 µM | [2] 83.8 µM and 75.1 µM | [12] 1.06 µM

CC(=O)OC/C=C(\C)CCC=C(C)C
inconclusive: [10] 46.1 µM | [4] 46.1 µM and 45.6 µM | [6] 45.6 µM | [11] 46.1 µM
inactive: [1] | [2]

CC(C)(N)CO
inconclusive: [1] 47.2 µM | [2] 47.2 µM | [10] 43.6 µM and 45.9 µM | [5] 43.6 µM | [6] 10.6 µM | [7] 43.6 µM

O=C(O)c1ccc2c(c1)nc(C(=O)NC1CCN(C3CC3)CC1)n2Cc1cc(-c2ccc(Cl)s2)on1
inactive: [7]
inconclusive: [1] 12 µM | [2] 12 µM | [10] 11.1 µM | [4] 11.1 µM | [6] 11.1 µM | [13] 48.4 µM

c1ccc(C(O[C@@H]2CCCN(CCc3ccc4c(c3)OCO4)C2)c2ccccc2)cc1
inactive: [4] | [5] | [11]
active: [1] 89 µM | [2] 77.7 µM and 81.9 µM | [3] 70.1 µM | [13] 36.5 µM
inconclusive: [8] 46.1 µM
